Results are given in words; binding and its absence hold for the method and conditions named.
How the values were obtained:
[1] = target: human DLL4 deletion mutant hDLL4.1 (human); assay: Biacore, VHH on chip, deletion mutant injected
[2] = target: mouse DLL4 deletion mutant mDLL4.8 (mouse); assay: Biacore, VHH on chip, deletion mutant injected

| binding [1] | binding [2] | Binder |
| --- | --- | --- |
| no binding (tested: 200 nM) | no binding (tested: 200 nM) | DLLBII101G08 (VHH, also called DLLBII101G8; 101G8; not shown: C-terminal c-myc tag and His6 tag) VHH: EVQLVESGGGLVQAGGSLRLSCAASGRTFSSYAMAWFRQAPGKEREFVAAIRWSGGTAYYADSVQGRFTISRDNAKNTVYLQMNSLKPEDTAVYYCANRAADTRLGPYEYDYWGQGTQVTVSS |
| no binding (tested: 200 nM) | no binding (tested: 200 nM) | DLLBII115A05 (VHH, also called DLLBII115A5; 115A5; not shown: C-terminal c-myc tag and His6 tag) VHH: EVQLVESGGGLVQPGGSLRLSCAASGFTFGSYDMSWVRRSPGKGPEWVSSINSGGGSTYYADFVKGRFTISRDNAKNTLYLQMNSLKPEDTAVYYCAADRYIRARQGDYWGAYEYDYWGQGTQVTVSS |
| no binding (tested: 200 nM) | no binding (tested: 200 nM) | DLLBII56A09 (VHH, not shown: small tags and cut ends) VHH: EVQLVESGGGLVQPGGSLRLSCAASGFTFDDYAIGWFRQAPGKEPEGISCISSSGGITYYADSVKGRFTTSRDNAKNTVYLQMNSLKPEDTAVYYCATPGIAACRGIHYTGQGTQVTVSS |
